This test concerns the target T1, His6-tagged FloA (Bacillus subtilis) (UniProt P54466).
T1 sequence: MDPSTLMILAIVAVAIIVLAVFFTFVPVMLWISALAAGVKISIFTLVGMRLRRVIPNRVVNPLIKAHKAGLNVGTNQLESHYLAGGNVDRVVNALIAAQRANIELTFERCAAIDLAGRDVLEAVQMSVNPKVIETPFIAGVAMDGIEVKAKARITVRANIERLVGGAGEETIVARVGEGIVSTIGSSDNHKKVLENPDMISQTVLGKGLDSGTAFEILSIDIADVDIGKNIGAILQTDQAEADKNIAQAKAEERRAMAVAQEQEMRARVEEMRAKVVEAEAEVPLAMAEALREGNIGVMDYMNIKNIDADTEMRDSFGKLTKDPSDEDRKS
The test is described as follows: native gel or EMSA; blue-native PAGE (4-20% gradient) of the membrane fraction, solubilised with 1% DDM, of B. subtilis overexpressing His6-FloA or His6-FloT; bands that held the flotillin found by anti-His immunoblot, cut and analysed by LC/MS.

Protein sequences, listed by entry. Tags and fused reporters are not part of them. Lines headed by an entry give the natural chain unless they say otherwise; changes in a name come on top.
UniProt Q01466: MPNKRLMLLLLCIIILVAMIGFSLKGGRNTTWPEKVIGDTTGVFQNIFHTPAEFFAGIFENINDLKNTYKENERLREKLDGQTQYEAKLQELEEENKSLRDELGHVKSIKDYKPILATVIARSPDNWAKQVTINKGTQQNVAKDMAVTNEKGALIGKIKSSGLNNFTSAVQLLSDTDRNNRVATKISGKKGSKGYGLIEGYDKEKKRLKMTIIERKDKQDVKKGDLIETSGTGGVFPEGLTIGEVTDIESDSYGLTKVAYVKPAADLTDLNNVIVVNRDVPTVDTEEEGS

These are yes or no findings as the source states them, for the method shown. Binding calls can cover weak binding; strength is not graded here. Sequences can lack the tags named with a protein.

With MreC (from UniProt Q01466), the binding entry was “binds”.

The values above are taken from PMC4409396.
